Data source: PubChem BioAssay AID743454 (Peter MacCallum Cancer Centre, 2014)
Screen: 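Search for knock-downs that restore vorinostat killing in resistant colon cancer cells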 (primary screen). System: human HCT116-VR colon cancer cells, selected for vorinostat resistance. Knock-down reagent: siRNA pool against human genes, 40 nM siRNA pool. Duration: vorinostat for 24 h, read-out about 72 h after transfection. Treatment: vorinostat at 2.5 µM final. Measured: 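Two measures, CellTiter-Fluor viability and luminescent caspase 3/7 activity, each as fold change against same-plate mock wells, mean of duplicates, then screen-wide robust z-score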. Reading the numbers: viability robust z-score: higher = more viable cells than screen typical; caspase robust z-score: higher = more caspase 3/7 activity than screen typical. Active means: 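Hits are knock-downs in viability class RV1/RV2 or caspase class CA1/CA2, excluding ones that killed cells in the no-drug cell-count arm; hits then retested with single siRNAs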.
In all, the deposit lists about 18,000 reagents; this is a random part of them. 450 of all reagents (2.5%) were called active. 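Single biological run; no consistent viability z cut-off exists, so the class columns, not z-scores, define the calls.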 Unmarked entries are inactive.

no.	gene symbol	PubChem SID	viability hit class	caspase hit class	viability robust z-score	caspase robust z-score
1	NLRP7	SID135623230	no change	no change	-0.71	1.8
2	MGRN1	SID134325456	no change	no change	-0.16	-0.6
3	NDUFB6	SID134321160	no change	no change	-0.65	0.82
4	REPS2	SID152155354	no change	no change	-0.95	-0.47
5	KDM5B	SID135621856	no change	no change	1.14	0.03
6	TGIF2LY	SID134321222	no change	no change	-0.19	1.66
7	TMEM174	SID135623195	no change	no change	0.4	-0.16
8	FBF1	SID135624939	no change	no change	0.86	-0.97
9	OR51Q1	SID152152141	no change	no change	0.04	1.1
10	MTARC1	SID134323155	no change	no change	0.1	-0.52
11	PRIMA1	SID152147618	no change	no change	-0.97	2.77
12	ZNF711	SID152156205	no change	no change	0.22	-0.17
13	SMTN	SID134321376	no change	no change	-0.39	0.97
14	EIF3G	SID152149318	no change	no change	-3.65	-0.6
15	CLIC1	SID134314262	no change	no change	-1.78	1.03
16	DBT	SID152147309	no change	no change	-0.26	-0.84
17	TCF12	SID134311750	no change	no change	-1	1.27
18	LYPD2	SID152150877	no change	no change	-1.13	0.71
19	ENO2	SID152147473	no change	no change	0.22	-0.17
20	KLHL20	SID134310658	no change	no change	1.09	0.06
21	DHX30	SID134321146	no change	no change	-0.62	-0.16
22	EVX2	SID135624354	no change	no change	1.01	0.8
23	SASS6	SID134322965	no change	no change	1.64	0.16
24	LAMA4	SID135622183	no change	no change	-1.75	1.9
25	TOP2B	SID135620799	no change	no change	0.52	-0.5
26	ART4	SID152154434	no change	no change	-0.84	-0.79
27	CABIN1	SID134316725	no change	no change	0.44	-0.01
28	ADRA2A	SID135620985	no change	no change	0	0.32
29	ALPL	SID152154266	no change	no change	-1.12	3.09
30	MYCT1	SID135624637	no change	no change	-0.86	4.65
31	RPP25L	SID134321426	no change	no change	0.04	3.82
32	PIGB	SID135623295	no change	no change	-0.51	0.49
33	DCDC2	SID152152783	no change	no change	-0.47	1.25
34	KRTAP10-7	SID135624997	no change	no change	-0.71	-0.82
35	WASH5P	SID135624821	no change	no change	-0.55	-0.4
36	TBC1D23	SID134324222	no change	no change	0.15	0.74
37	OR4A15	SID134329895	no change	no change	0.32	-0.83
38	DAP3	SID134310452	no change	no change	-0.8	-0.58
39	MYO1C	SID152155410	no change	no change	0.02	0.2
40	DEFA5	SID134317378	no change	no change	0.55	-0.4
41	PRR25	SID135624932	no change	no change	-1.58	1.36
42	ENTPD2	SID134315227	no change	no change	-0.42	0.41
43	ADGRD2	SID152152666	no change	no change	0.92	-1.3
44	ZNF616	SID152151413	no change	no change	-0.6	0.07
45	CENPK	SID135622909	no change	no change	-0.26	1.21
46	ECHDC2	SID135621873	no change	no change	-0.07	3.09
47	GOLGA6B	SID152147534	no change	no change	-1.23	-0.25
48	GALNT2	SID134316181	no change	no change	-1.29	0.04
49	RNASEH1	SID134316857	no change	no change	0.44	0.38
50	INHA	SID134316021	no change	no change	1.63	-0.66
51	PINK1	SID152149500	no change	no change	-0.4	-0.46
52	HCAR2	SID135621234	no change	no change	-1.89	3.29
53	GARIN1A	SID152155233	no change	no change	-0.14	-0.65
54	SULT6B1	SID135625282	no change	no change	-0.2	0.42
55	PCDH12	SID134317839	no change	no change	0.34	1.48
56	PLP1	SID135622944	no change	no change	-0.42	-0.23
57	GRAMD2A	SID152151240	no change	no change	-0.13	-0.98
